Literature values, collected in patent US20070298000A1, “High SPF transparent or translucent naturally derived, cytoprotective, UV radiation resistant compositions” (priority 2006, published 2007).
At least one compound was matched to its structure with a doubt left.

Tests used:
[1] = test system: cancer cells
[2] = test system: uterine wet weight, cell height, cell proliferation; conditions: cell proliferation assays

SMILES: CCCCC(CC)COC(=O)C=Cc1ccc(OC)cc1 (centres unmarked) [octyl methoxycinnamate]
- effect on growth of cancer cells / activity in cells [1]: made cancer cells grow more rapidly
- estrogenicity [2]: highly estrogenic
